Measured values reported in PMC3322156.

Amino acid sequences for entries named in this document (tags omitted). A change or cut given only in a name is not applied to a line headed by its entry.
UniProt Q9CQJ4: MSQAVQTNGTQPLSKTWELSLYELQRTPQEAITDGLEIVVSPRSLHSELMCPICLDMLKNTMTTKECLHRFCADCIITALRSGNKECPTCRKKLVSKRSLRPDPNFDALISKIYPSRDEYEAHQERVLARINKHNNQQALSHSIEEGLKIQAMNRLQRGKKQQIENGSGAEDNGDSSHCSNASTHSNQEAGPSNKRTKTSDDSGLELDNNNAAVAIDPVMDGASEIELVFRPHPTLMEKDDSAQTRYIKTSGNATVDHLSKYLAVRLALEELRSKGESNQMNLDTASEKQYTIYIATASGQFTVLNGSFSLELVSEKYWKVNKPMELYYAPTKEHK

Experiments:
[1] = molecular target: Ring1B (mouse (endogenous in ESCs)) (UniProt Q9CQJ4); experiment: affinity purification with mass spectrometry; IP with anti-Ring1B (MBL, D139-3) from 400 ug ESC nuclear extract (WT cells, or Ring1B-/- cells rescued with Ring1BI53A), Protein G Sepharose 2 h at 4 C, washes BC300 (300 mM NaCl, 0.05% NP40) and BC100; 4-20% SDS-PAGE, bands cut, nLC-ESI-MS/MS; peptides also in the control IgG lane discarded; IgG heavy and light chain bands omitted
[2] = molecular target: Ring1BI53A (UniProt Q9CQJ4); experiment: as above

B1: HMG20b (protein, UniProt Q9Z104 1-317)
chain: MSHGPRQPGAATAPAGGKTPGQHGAFVVAVKQERSEGSRAGEKGPQEEEPVKKRGWPKGKKRKKILPNGPKAPVTGYVRFLNERREQIRTRHPDLPFPEITKMLGAEWSKLQPAEKQRYLDEAEKEKQQYLKELWAYQQSEAYKVCTEKIQENKIKKEDSSSGLMNTLLNGHKGVDCDGFSTFDVPIFTEEFLDQNKAREAELRRLRKMNVAFEEQNAVLQRHTQSMSSARERLEQELALEERRTLALQQQLQAVRQALTASFASLPVPGTGETPTLGTLDFYMARLHGAIERDPAQHERLIARVKEILARVASEHL
- binding [1]: binds
- binding [2]: binds

B2: Rybp (protein, UniProt Q8CCI5 1-228)
chain: MTMGDKKSPTRPKRQAKPAADEGFWDCSVCTFRNSAEAFKCSICDVRKGTSTRKPRINSQLVAQQVAQQYATPPPPKKEKKEKVEKPDKEKPEKDKDISPSVTKKNTNKKTKPKSDILKDPPSEANSIQSANATTKTSETNHTSRPRLKNVDRSTAQQLAVTVGNVTVIITDFKEKTRSSSTSSSTVTSSAGSEQQNQSSSGSESTDKGSSRSSTPKGDMSAVNDESF
- binding [1]: binds
- binding [2]: binds

B3: Pcgf3 (protein, UniProt Q8BTQ0 1-241)
chain: MLTRKIKLWDINAHITCRLCSGYLIDATTVTECLHTFCRSCLVKYLEENNTCPTCRIVIHQSHPLQYIGHDRTMQDIVYKLVPGLQEAEMRKQREFYHKLGMEVPGDIKGEACSAKQHLDPRNGETKADDNSNKETAEEKQEEDNDYHRSDEQVSICLECNSSKLRGLKRKWIRCSAQATVLHLKKFIAKKLNLSSFNELDILCNEEILGKDHTLKFVVVTRWRFKKAPLLLHYRPKMDLL
- binding [1]: binds
- binding [2]: binds

B4: Pcgf6 (protein, UniProt Q99NA9 1-353)
chain: MDEAETDATENKRASEAKRASAMPPPPPPPPPISPPALIPAPAAGEEGPASLGQAGAAGCSRSRPPALEPERSLGRLRGRFEDYDEELEEEEEMEEEEEEEEEMSHFSLRLESGRADSEDEEERLINLVELTPYILCSICKGYLIDATTITECLHTFCKSCIVRHFYYSNRCPKCNIVVHQTQPLYNIRLDRQLQDIVYKLVINLEEREKKQMHDFYKERGLEVPKPAAPQPVPSSKGKTKKVLESVFRIPPELDMSLLLEFIGANEDTGHFKPLEKKFVRVSGEATIGHVEKFLRRKMGLDPACQVDIICGDHLLERYQTLREIRRAIGDTAMQDGLLVLHYGLVVSPLKIT
- binding [1]: binds
- binding [2]: binds

B5: Mel18 (protein, UniProt P23798 1-342)
chain: MHRTTRIKITELNPHLMCALCGGYFIDATTIVECLHSFCKTCIVRYLETNKYCPMCDVQVHKTRPLLSIRSDKTLQDIVYKLVPGLFKDEMKRRRDFYAAYPLTEVPNGSNEDRGEVLEQEKGALGDDEIVSLSIEFYEGVRDREEKKNLTENGDGDKEKTGVRFLRCPAAMTVMHLAKFLRNKMDVPSKYKVEILYEDEPLKEYYTLMDIAYIYPWRRNGPLPLKYRVQPACKRLTLPTVPTPSEGTNTSGASECESVSDKAPSPATLPATSSSLPSPATPSHGSPSSHGPPATHPTSPTPPSTAAGTTTATNGGTSNCLQTPSSTSRGRKMTVNGAPCPP
- binding [1]: binds
- binding [2]: binds

These are yes or no findings as the source states them, for the method shown. Binding seen in cells or lysates may run through a third protein. Here binding means that the protein was enriched with, or labelled near, the bait; the list need not be complete.
